Results deposited as PubChem BioAssay AID1259254 (NCATS, 2017)

Purpose: 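Genome-wide screen for genes that prevent DNA re-replication in cancer cells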 (primary screen)
Cell system: human HCT116 colorectal cancer cells
Knock-down reagent: single siRNA against human genes
Time to read-out: 3 days
Measurement: 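Nuclei stained with Hoechst and imaged; cell-cycle phase assigned by DNA content; G2 share scaled per plate, non-targeting siRNA 0%, GMNN siRNA 100%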
Reading the numbers: G2 robust z-score and G2 cells, % of GMNN control: higher = more G2 cells, more excess DNA replication
Hit rule: 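An siRNA counts as active if its G2 robust z-score lies at least 5 MADs above the screen median; here such calls match roughly 38% of GMNN control or more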
Here is an unselected part of about 59,000 reagents. In the full data, about 1,550 (2.6%) were called active. 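G2 share is only a proxy for re-replication; each gene was hit by three separate siRNAs, and active genes were retested.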 Further read-outs or replicates are left out here. Not given: the amount of reagent.

{"target gene":"UBE2Z (ubiquitin conjugating enzyme E2 Z)","PubChem SID":"SID160748321","G2 robust z-score":-1.1,"G2 cells, % of GMNN control":-4.76,"Outcome":"inactive"}
{"target gene":"UBE2Z (ubiquitin conjugating enzyme E2 Z)","PubChem SID":"SID160748323","G2 robust z-score":1.16,"G2 cells, % of GMNN control":11.2,"Outcome":"inactive"}
{"target gene":"UBE2Z (ubiquitin conjugating enzyme E2 Z)","PubChem SID":"SID160748324","G2 robust z-score":0.671,"G2 cells, % of GMNN control":7.69,"Outcome":"inactive"}
{"target gene":"TM6SF1 (transmembrane 6 superfamily member 1)","PubChem SID":"SID160741401","G2 robust z-score":0.175,"G2 cells, % of GMNN control":4.2,"Outcome":"inactive"}
{"target gene":"TM6SF1 (transmembrane 6 superfamily member 1)","PubChem SID":"SID160741402","G2 robust z-score":-0.496,"G2 cells, % of GMNN control":-0.525,"Outcome":"inactive"}
{"target gene":"TM6SF1 (transmembrane 6 superfamily member 1)","PubChem SID":"SID160741403","G2 robust z-score":-0.197,"G2 cells, % of GMNN control":1.58,"Outcome":"inactive"}

The list goes on; the last 2 above are carried over.
{"target gene":"TM6SF1 (transmembrane 6 superfamily member 1)","PubChem SID":"SID160741402","G2 robust z-score":-0.496,"G2 cells, % of GMNN control":-0.525,"Outcome":"inactive"}
{"target gene":"TM6SF1 (transmembrane 6 superfamily member 1)","PubChem SID":"SID160741403","G2 robust z-score":-0.197,"G2 cells, % of GMNN control":1.58,"Outcome":"inactive"}
{"target gene":"FAM3A (FAM3 metabolism regulating signaling molecule A)","PubChem SID":"SID160747045","G2 robust z-score":-0.864,"G2 cells, % of GMNN control":-3.11,"Outcome":"inactive"}
{"target gene":"FAM3A (FAM3 metabolism regulating signaling molecule A)","PubChem SID":"SID160747046","G2 robust z-score":-0.161,"G2 cells, % of GMNN control":1.83,"Outcome":"inactive"}
{"target gene":"FAM3A (FAM3 metabolism regulating signaling molecule A)","PubChem SID":"SID160747047","G2 robust z-score":3.42,"G2 cells, % of GMNN control":27.1,"Outcome":"inactive"}
{"target gene":"RAI2 (retinoic acid induced 2)","PubChem SID":"SID160729130","G2 robust z-score":-0.823,"G2 cells, % of GMNN control":-2.82,"Outcome":"inactive"}
{"target gene":"RAI2 (retinoic acid induced 2)","PubChem SID":"SID160729131","G2 robust z-score":-0.897,"G2 cells, % of GMNN control":-3.35,"Outcome":"inactive"}
{"target gene":"RAI2 (retinoic acid induced 2)","PubChem SID":"SID160732290","G2 robust z-score":0.0351,"G2 cells, % of GMNN control":3.21,"Outcome":"inactive"}
